{
  "source": "paper PMC4397020",
  "key": {"[1]": {"target": "laminin (from Engelbreth-Holm-Swarm murine sarcoma basement membrane) (murine)", "test": "ELISA; substrate coated at 0.03 μM in HBS (25 mM HEPES pH 7.4, 150 mM NaCl) on non-tissue culture 96-well plates overnight at 4°C, blocked with HBSB (1% BSA); MBP fusion at 1 μM in HBSB, 1 hr at RT; fixed; detected with anti-MBP antiserum; compared with buffer-coated wells and with MBP-β-gal; both …"}, "[2]": {"target": "type IV collagen (from Engelbreth-Holm-Swarm murine sarcoma basement membrane) (murine)", "test": "ELISA; substrate coated at 0.03 μM in HBS (25 mM HEPES pH 7.4, 150 mM NaCl) on non-tissue culture 96-well plates overnight at 4°C, blocked with HBSB (1% BSA); MBP fusion at 1 μM in HBSB, 1 hr at RT; fixed; detected with anti-MBP antiserum; compared with buffer-coated wells and with MBP-β-gal; both …"}},
  "note": "Results are given in words; binding and its absence hold for the method and conditions named. Tags and fused reporters may be left off the sequences shown.",
  "data": [
    {"binder": "MBP-LipL32 (protein, UniProt Q72SM7 20-272) CGAFGGLPSLKSSFVLSEDTIPGTNETVKTLLPYGSVINYYGYVKPGQAPDGLVDGNKKAYYLYVWIPAVIAEMGVRMISPTGEIGEPGDGDLVSDAFKAATPEEKSMPHWFDTWIRVERMSAIMPDQIAKAAKAKPVQKLDDDDDGDDTYKEERHNKYNSLTRIKIPNPPKSFDDLKNIDTKKLLVRGLYRISFTTYKPGEVKGSFVASVGLLFPPGIPGVSPLIHSNPEELQKQAIAAEESLKKAASDATK", "values": [
      {"measurement": "binding", "setting": "[1]", "result": "no binding (tested: 1 μM)"},
      {"measurement": "binding", "setting": "[2]", "result": "no binding (tested: 1 μM)"}
    ]}
  ]
}
